Test results: the supplement of paper PMC10849652
Some of the results follow. Residues, ends and D or L forms follow the SMILES beside them. *: point of attachment. Cbz = O=C(OCc1ccccc1)*

Sequences of proteins named here, by UniProt entry; tags and fusion partners are left off. A change or cut given only in a name is not applied to a line headed by its entry.
UniProt P15735: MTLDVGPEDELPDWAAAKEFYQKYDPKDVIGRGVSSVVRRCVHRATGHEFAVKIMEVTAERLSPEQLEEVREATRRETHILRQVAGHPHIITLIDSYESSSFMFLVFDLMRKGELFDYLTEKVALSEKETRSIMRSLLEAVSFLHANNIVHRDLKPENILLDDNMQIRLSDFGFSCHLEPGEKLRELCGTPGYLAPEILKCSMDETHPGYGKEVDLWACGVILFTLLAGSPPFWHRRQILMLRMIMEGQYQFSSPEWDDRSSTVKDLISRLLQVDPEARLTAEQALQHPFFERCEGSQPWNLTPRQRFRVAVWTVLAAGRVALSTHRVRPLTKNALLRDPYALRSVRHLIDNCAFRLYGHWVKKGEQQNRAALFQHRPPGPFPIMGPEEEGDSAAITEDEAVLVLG
UniProt O43164: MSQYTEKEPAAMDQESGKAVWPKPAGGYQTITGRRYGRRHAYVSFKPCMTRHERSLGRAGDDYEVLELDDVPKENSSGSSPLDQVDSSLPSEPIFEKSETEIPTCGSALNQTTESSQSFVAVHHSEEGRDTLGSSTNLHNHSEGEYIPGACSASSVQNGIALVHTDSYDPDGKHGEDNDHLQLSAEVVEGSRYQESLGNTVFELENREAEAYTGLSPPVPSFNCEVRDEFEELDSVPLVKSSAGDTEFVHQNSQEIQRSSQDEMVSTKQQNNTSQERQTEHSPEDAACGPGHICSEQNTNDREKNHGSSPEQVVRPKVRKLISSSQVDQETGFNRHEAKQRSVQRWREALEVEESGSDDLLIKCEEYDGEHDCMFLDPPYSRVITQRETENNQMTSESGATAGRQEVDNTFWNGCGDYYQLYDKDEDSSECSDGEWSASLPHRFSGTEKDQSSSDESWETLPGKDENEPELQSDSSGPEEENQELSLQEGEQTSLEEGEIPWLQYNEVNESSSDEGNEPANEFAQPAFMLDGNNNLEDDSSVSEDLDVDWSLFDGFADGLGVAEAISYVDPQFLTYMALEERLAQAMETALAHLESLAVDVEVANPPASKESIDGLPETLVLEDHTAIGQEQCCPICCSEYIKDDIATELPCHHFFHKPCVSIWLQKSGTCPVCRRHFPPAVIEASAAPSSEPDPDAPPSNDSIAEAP
UniProt Q9GZP4: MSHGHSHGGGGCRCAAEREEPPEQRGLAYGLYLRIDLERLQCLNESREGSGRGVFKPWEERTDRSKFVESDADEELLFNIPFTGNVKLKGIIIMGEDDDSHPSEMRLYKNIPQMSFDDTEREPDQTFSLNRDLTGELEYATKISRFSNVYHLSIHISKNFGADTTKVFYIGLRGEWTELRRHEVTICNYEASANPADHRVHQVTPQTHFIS
UniProt Q86UU1: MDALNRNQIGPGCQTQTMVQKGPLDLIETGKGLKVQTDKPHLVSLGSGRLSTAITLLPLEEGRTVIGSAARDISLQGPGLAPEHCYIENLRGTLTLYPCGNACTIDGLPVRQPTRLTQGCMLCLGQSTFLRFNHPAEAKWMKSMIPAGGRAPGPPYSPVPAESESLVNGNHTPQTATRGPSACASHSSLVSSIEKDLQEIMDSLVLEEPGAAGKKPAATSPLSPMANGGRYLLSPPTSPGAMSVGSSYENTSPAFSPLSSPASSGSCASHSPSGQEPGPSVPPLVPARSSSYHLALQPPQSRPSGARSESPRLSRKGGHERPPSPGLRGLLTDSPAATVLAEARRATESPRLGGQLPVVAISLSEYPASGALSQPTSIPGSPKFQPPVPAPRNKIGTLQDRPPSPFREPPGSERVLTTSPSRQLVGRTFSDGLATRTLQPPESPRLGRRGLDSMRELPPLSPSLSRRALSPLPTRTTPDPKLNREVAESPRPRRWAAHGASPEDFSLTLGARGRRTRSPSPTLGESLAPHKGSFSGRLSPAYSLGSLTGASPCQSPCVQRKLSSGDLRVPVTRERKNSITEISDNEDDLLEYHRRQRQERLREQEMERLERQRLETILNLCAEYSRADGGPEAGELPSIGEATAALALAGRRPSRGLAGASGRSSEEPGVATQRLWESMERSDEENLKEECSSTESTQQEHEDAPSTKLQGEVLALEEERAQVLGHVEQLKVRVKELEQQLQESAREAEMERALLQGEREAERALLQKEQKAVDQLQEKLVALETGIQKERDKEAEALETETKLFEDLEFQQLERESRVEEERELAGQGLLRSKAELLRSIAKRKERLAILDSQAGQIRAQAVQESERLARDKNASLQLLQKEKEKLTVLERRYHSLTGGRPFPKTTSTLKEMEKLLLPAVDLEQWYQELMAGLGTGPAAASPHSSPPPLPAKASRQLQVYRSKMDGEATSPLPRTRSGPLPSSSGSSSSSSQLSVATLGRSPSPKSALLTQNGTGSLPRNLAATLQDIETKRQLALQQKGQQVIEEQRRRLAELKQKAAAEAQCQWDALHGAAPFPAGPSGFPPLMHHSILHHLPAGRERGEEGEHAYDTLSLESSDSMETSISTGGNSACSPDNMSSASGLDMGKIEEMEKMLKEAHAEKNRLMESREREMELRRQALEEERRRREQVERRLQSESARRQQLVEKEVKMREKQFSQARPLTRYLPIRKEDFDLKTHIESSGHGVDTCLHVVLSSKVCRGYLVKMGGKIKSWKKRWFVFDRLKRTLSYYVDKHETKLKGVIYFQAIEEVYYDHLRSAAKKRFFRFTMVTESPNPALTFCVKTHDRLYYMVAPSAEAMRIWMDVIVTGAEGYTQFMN
UniProt Q8WUB8: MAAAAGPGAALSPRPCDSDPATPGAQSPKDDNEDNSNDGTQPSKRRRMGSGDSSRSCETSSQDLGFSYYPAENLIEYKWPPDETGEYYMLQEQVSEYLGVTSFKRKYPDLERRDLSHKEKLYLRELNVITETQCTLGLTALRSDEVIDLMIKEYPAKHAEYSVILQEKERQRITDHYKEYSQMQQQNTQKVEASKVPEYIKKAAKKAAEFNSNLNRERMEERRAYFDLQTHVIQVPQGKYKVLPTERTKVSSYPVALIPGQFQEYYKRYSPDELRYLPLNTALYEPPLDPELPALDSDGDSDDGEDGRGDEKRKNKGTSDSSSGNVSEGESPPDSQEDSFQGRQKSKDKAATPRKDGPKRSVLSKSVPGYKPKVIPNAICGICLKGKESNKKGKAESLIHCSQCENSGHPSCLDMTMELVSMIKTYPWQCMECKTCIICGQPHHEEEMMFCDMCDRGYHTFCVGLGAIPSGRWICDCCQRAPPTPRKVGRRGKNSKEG
UniProt O00628: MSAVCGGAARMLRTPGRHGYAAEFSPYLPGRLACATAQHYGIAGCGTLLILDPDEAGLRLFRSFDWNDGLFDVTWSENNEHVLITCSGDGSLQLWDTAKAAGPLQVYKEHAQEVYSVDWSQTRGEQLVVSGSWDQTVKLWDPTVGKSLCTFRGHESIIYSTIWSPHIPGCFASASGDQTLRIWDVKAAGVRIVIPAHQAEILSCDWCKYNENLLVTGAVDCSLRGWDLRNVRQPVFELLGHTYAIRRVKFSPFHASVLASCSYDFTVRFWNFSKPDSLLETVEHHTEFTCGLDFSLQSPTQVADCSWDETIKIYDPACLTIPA
UniProt Q92508: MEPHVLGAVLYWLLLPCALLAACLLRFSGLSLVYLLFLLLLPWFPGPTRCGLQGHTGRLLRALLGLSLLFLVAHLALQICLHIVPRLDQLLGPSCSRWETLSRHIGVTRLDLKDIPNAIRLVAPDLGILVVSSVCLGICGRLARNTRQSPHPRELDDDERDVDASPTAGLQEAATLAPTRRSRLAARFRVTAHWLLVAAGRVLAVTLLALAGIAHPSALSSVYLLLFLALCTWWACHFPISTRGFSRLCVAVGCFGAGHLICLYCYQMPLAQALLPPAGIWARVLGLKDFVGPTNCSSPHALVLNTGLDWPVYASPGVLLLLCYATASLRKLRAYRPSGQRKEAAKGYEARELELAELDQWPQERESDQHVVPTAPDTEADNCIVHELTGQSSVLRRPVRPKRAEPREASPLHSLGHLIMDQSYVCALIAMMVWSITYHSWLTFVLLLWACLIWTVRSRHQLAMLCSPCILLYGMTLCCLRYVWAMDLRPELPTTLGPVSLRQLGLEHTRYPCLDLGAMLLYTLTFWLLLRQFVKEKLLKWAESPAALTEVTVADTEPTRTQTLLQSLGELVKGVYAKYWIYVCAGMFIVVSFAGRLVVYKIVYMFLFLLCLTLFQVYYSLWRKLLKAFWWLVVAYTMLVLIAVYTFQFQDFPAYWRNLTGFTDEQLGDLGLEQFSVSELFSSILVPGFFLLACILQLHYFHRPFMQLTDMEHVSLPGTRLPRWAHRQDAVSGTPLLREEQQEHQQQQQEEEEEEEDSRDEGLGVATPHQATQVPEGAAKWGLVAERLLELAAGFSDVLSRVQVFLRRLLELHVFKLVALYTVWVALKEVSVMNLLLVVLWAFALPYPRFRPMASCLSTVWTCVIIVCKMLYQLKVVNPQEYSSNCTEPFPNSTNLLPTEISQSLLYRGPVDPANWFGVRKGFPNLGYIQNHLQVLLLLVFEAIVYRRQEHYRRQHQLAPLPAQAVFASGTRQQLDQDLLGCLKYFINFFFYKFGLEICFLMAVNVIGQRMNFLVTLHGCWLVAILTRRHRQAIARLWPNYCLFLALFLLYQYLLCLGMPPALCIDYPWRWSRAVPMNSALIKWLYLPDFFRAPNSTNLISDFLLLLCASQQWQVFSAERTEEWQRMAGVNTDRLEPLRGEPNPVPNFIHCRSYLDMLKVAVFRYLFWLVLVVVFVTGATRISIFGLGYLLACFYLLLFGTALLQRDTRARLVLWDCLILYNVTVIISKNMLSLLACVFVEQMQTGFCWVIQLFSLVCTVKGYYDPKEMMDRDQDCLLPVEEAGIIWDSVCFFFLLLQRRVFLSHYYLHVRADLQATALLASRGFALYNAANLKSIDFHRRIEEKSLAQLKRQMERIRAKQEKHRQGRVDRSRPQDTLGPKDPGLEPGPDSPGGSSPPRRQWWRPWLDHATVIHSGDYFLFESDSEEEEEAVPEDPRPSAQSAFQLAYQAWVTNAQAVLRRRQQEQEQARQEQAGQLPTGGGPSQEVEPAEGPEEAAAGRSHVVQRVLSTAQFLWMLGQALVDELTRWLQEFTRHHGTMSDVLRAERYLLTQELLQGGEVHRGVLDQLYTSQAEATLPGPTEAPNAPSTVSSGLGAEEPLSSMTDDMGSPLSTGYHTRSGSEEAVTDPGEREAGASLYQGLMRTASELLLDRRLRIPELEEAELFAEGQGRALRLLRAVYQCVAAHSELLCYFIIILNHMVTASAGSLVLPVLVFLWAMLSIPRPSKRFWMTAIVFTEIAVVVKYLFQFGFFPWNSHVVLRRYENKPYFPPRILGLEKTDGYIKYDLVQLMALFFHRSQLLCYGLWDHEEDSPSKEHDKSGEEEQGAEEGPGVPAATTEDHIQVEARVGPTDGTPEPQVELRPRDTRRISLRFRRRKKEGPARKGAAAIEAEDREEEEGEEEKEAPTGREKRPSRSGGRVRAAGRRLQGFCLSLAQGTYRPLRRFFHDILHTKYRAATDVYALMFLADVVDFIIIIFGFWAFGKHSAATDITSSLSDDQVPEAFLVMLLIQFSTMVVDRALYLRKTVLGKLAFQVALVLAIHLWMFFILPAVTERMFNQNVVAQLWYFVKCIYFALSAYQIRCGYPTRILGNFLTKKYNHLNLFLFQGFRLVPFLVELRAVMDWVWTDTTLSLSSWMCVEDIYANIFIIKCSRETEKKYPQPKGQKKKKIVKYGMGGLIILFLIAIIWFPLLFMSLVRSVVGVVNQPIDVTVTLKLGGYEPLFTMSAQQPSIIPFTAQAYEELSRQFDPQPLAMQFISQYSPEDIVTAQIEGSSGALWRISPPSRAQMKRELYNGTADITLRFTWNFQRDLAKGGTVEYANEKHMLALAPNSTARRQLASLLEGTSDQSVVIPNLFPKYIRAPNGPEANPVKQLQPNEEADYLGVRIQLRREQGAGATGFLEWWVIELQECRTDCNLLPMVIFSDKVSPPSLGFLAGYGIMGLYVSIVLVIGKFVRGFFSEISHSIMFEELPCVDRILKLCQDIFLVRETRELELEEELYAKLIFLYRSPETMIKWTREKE
UniProt Q9BUL5: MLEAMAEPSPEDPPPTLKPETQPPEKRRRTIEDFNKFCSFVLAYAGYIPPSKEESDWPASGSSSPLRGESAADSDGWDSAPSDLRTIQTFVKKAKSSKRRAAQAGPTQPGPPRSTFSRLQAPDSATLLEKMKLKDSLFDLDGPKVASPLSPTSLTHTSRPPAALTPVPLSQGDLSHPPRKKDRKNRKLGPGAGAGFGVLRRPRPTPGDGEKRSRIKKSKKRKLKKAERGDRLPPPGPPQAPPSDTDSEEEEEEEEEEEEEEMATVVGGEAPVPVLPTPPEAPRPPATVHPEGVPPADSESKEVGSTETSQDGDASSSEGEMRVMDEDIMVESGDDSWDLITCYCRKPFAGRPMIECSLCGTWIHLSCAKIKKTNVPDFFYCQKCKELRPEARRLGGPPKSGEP

Assays:
Assay in all cases: log2 fold change, soluble protein after heating vs DMSO (PISA); higher = thermal stabilisation; K562 cells, 10 uM, 30 min; active = over 0.2 and 3.5 SD of the protein, either way, in both replicates (recomputed)
[1] = compound: C#Cc1cccc(Nc2ncnc3cc(OCCOC)c(OCCOC)cc23)c1 [erlotinib]
In short: (§1)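 Aliquots of K562 cells (2×10^6 cells/mL) treated with 10 μM compound for 30 min were heated for 3 min over 48°C-58°C. After pooling and extraction in PBS with 0.5% NP-40 at 4°C, soluble protein from a 21,000xg, 90 min spin was quantified by TMTpro 16plex LC-MS/MS with channel sums equalised. Thermal stability is expressed against control samples, from duplicates, as a log2 fold change.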

[2] = compound: C/C(=N\NC(=O)C1=CC(=CC=C1)S(=O)(=O)N2CCOCC2)/C3=C(C=CC(=C3)Cl)O
In short: as §1

[3] = compound: C1=CC(=C(C=C1Cl)C2=NC3=NC=CN=C3C(=N2)NC4=CC=NC=C4)F
In short: as §1

[4] = compound: C1=CC(=CC=C1C2=NC3=C(N2)C=C(C=C3)C(=O)N)OC4=CC=C(C=C4)Cl
In short: as §1

[5] = compound: C1=CC2=C(C=CC(=C2)/C=C\3/C(=O)NC(=NCC4=CC=CS4)S3)N=C1
In short: as §1

[6] = compound: C1=CC2=NC=CN=C2C=C1/C=C/3\C(=O)NC(=O)S3
In short: as §1

[7] = compound: C1=CC=C(C=C1)C2=NC(=C(N2)C3=CC=NC=C3)C4=CC(=C(C=C4)Cl)O
In short: as §1

[8] = compound: C1=CC=C2C(=C1)C3=NNC4=CC=CC(=C43)C2=O
In short: as §1

[9] = compound: C1CCN(C1)C(=O)NC2=CC=CC(=C2)NC3=NC=C(C(=N3)NCCC4=CN=CN4)Br
In short: as §1

[10] = compound: C1CN(CCC1(CC2=CC=C(C=C2)Cl)N)C3=NC=NC4=C3C=CN4
In short: as §1

[11] = compound: C1COCCN1CCN2C3=CC=CC=C3N=C2NC(=O)C4=CC(=CC=C4)[N+](=O)[O-] [IRAK-1-4 Inhibitor I]
In short: as §1

[12] = compound: C=CC(=O)N1CCC[C@@H](n2nc(-c3ccc(Oc4ccccc4)cc3)c3c(N)ncnc32)C1 [ibrutinib]
In short: as §1

[13] = compound: CC(=O)c1cnc2ccc(-c3cc(Cl)c(O)c(Cl)c3)nc2c1N[C@H]1CC[C@H](CN(C)C)CC1
In short: as §1

[14] = compound: CC(C)(C)Cn1c(N)nc2ccc(-c3[nH]c(C(C)(C)C)nc3-c3ccc(F)cc3)nc21 [ralimetinib]
In short: as §1

[15] = compound: CC(C)(O)CC(=O)NCCn1ccc2ncnc(Nc3ccc(Oc4cccc(C(F)(F)F)c4)c(Cl)c3)c21
In short: as §1

[16] = compound: CC(C)C1=C2N=C(C=C(N2N=C1)NCC3=CC=CC=C3)NCCCCCCN
In short: as §1

[17] = compound: CC(C)C[C@@H](C=O)NC(=O)[C@H](CC(C)C)NC(=O)[C@H](CC(C)C)NC(=O)OCc1ccccc1
In short: as §1

[18] = compound: CC(C)N(C[C@H]1O[C@@H](n2cnc3c(N)ncnc32)[C@H](O)[C@@H]1O)[C@H]1C[C@@H](CCc2nc3cc(C(C)(C)C)ccc3[nH]2)C1 [pinometostat]
In short: as §1

[19] = compound: CC1=C(C2=C(C=C1)C(=O)C3=CC=CC=C3N2CCCN)C
In short: as §1

[20] = compound: CC1=C(C(CC(=O)N1)C2=CC=C(C=C2)C(F)(F)F)C(=O)NC3=C(C=C4C(=C3)C=NN4)F
In short: as §1

Measured: log2 fold change

PHKG2 (UniProt P15735)
inactive: [1] -0.067 | [2] -0.078 | [3] 0.021 | [4] -0.003 | [5] -0.055 | [6] -0.113 | [7] 0.034 | [8] 0.076 | [9] -0.159 | [10] 0.029 | [11] -0.034 | [12] -0.008 | [14] 0.031 | [15] -0.121 | [16] -0.041 | [17] 0.017 | [18] 0.054 | [19] 0.115
active: [13] 0.39

PHKB isoform 3 (UniProt Q93100)
inactive: [1] -0.06 | [2] -0.027 | [3] 0.058 | [4] -0.008 | [5] 0.049 | [6] -0.023 | [7] -0.011 | [8] 0.048 | [9] 0.022 | [10] 0.039 | [11] -0.063 | [12] -0.044 | [13] 0.089 | [14] 0.028 | [15] -0.073 | [16] -0.06 | [17] 0.094 | [18] 0.123 | [20] 0.031 | [19] -0.018

PJA2 (UniProt O43164)
inactive: [1] -0.006 | [2] -0.047 | [3] -0.049 | [4] 0.018 | [5] 0.003 | [6] 0.071 | [7] -0.061 | [8] -0.112 | [9] -0.024 | [10] -0.009 | [11] 0.061 | [12] 0.023 | [13] 0.091 | [14] -0.004 | [15] -0.02 | [16] -0.013 | [17] 0.169 | [18] -0.005
active: [19] -0.308

PITHD1 (UniProt Q9GZP4)
inactive: [1] 0.006 | [2] -0.04 | [3] -0.033 | [4] 0.048 | [5] 0.025 | [6] -0.079 | [7] -0.035 | [8] -0.003 | [9] 0.072 | [10] 0.059 | [11] 0.081 | [12] 0.048 | [13] -0.022 | [14] -0.08 | [15] 0.059 | [16] 0.128 | [17] 0.031 | [18] 0.007 | [20] 0.034 | [19] 0

PHLDB1 isoform 2 (UniProt Q86UU1)
inactive: [1] -0.02 | [2] 0.03 | [3] 0.099 | [4] 0.027 | [5] 0.165 | [6] -0.093 | [7] 0.008 | [8] -0.125 | [9] -0.048 | [10] 0.025 | [11] 0.014 | [12] -0.055 | [14] 0.005 | [15] -0.053 | [16] -0.018 | [17] 0.016 | [18] -0.011 | [19] 0.118
active: [13] -0.832

PHF10 (UniProt Q8WUB8)
inactive: [1] -0.124 | [2] -0.086 | [3] -0.051 | [4] 0.155 | [5] 0.057 | [6] 0.16 | [7] -0.093 | [8] -0.254 | [9] 0.208 | [10] -0.069 | [11] -0.011 | [12] -0.199 | [13] -0.096 | [14] 0.012 | [15] 0.169 | [16] -0.163 | [17] -0.016 | [18] 0.026 | [19] -0.083

PEX7 (UniProt O00628)
active: [4] 0.276
inactive: [1] 0.021 | [2] 0.034 | [3] 0.034 | [5] 0.08 | [6] -0.117 | [7] 0.039 | [8] -0.041 | [9] -0.031 | [10] 0.063 | [11] 0.03 | [12] -0.092 | [13] -0.106 | [14] -0.064 | [15] -0.057 | [16] -0.006 | [17] 0.003 | [18] -0.034 | [19] 0.033

Random excerpt: 2 records from the list.
PEX7 (UniProt O00628)
active: [4] 0.276
inactive: [1] 0.021 | [2] 0.034 | [3] 0.034 | [5] 0.08 | [6] -0.117 | [7] 0.039 | [8] -0.041 | [9] -0.031 | [10] 0.063 | [11] 0.03 | [12] -0.092 | [13] -0.106 | [14] -0.064 | [15] -0.057 | [16] -0.006 | [17] 0.003 | [18] -0.034 | [19] 0.033

PHLDB1 isoform 2 (UniProt Q86UU1)
inactive: [1] -0.02 | [2] 0.03 | [3] 0.099 | [4] 0.027 | [5] 0.165 | [6] -0.093 | [7] 0.008 | [8] -0.125 | [9] -0.048 | [10] 0.025 | [11] 0.014 | [12] -0.055 | [14] 0.005 | [15] -0.053 | [16] -0.018 | [17] 0.016 | [18] -0.011 | [19] 0.118
active: [13] -0.832

Continuation.

PIEZO1 (UniProt Q92508)
inactive: [1] -0.017 | [2] -0.035 | [3] 0.004 | [4] 0.02 | [5] 0.056 | [6] 0.018 | [7] 0.007 | [8] -0.032 | [9] 0.017 | [10] 0.07 | [11] 0.007 | [12] 0.061 | [13] -0.015 | [14] 0.017 | [15] 0.019 | [16] 0.108 | [17] 0.021 | [18] -0.008 | [20] 0.026 | [19] -0.022

PHF23 (UniProt Q9BUL5)
inactive: [1] 0.006 | [2] 0.038 | [3] -0.013 | [4] 0.003 | [5] 0.014 | [6] 0.02 | [7] -0.079 | [8] -0.009 | [9] 0.071 | [10] 0.011 | [11] 0.044 | [12] -0.039 | [13] 0.011 | [14] -0.098 | [15] -0.018 | [16] 0.025 | [17] 0.006 | [18] 0.018 | [20] 0.022 | [19] -0.005
